# From the supplement of paper PMC5407854, “Inhibitor of ppGalNAc-T3-mediated O-glycosylation blocks cancer cell invasiveness and lowers FGF23 levels” (eLife, 2017)
# The list shows a part of the results. Most values lie at the level of the controls, where differences are scatter.
# How the values were obtained:
# ppGalNAc-T3 sensor = experiment: T3 sensor activation Q score (MG/GFP ratio z-score vs DMSO controls) (SD units); higher = more sensor activation (inhibition of ppGalNAc-T3 glycosylation); details: HEK293 sensor cells; 10 µM; 6 h
# Experimental: (§1)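 Cells were treated with compound at 10 uM for 6 h, then MG/GFP ratio was read by flow cytometry (10,000 cells per well, duplicate wells). Q = (R - R_neg)/SD_neg relative to DMSO vehicle controls; the signal rises when the glycosyltransferase is inhibited.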
# ppGalNAc-T2 sensor = experiment: T2 sensor activation Q score (MG/GFP ratio z-score vs DMSO controls) (SD units); higher = more sensor activation (inhibition of ppGalNAc-T2 glycosylation); details: HEK293 sensor cells; 10 µM; 6 h
# Experimental: as §1
Structure (SMILES),T3 sensor activation Q score (ppGalNAc-T3 sensor),T2 sensor activation Q score (ppGalNAc-T2 sensor)
COc1ccc(Br)cc1CN1CCN(c2ccccc2C)CC1,0.135,0
COc1cc(CN2CCN(C)CC2)cc(OC)c1,–,1.49
COc1ccccc1CN1CCN(c2ccccc2OC)CC1,–,0.54
Cc1ccccc1CN1CCN(c2ccccc2F)CC1,–,0.22
CC(C)c1ccc(CN2CCN(C)CC2)cc1,–,0.21
CCOc1ccccc1N1CCN(Cc2ccc(OC)cc2)CC1,–,0.41
C=CCOc1ccccc1CN1CCN(c2ccccc2F)CC1,–,0.785
Cc1ccc(CN2CCN(c3ccccc3)CC2)c(C)c1,–,-0.175
Cc1ccccc1CN1CCN(c2ccccc2Cl)CC1,–,-0.965
CCN1CCN(Cc2ccc(OC)c(C)c2C)CC1,–,-1.11
Cc1ccc(C)c(N2CCN(Cc3ccccc3)CC2)c1,–,-0.715
CC(=O)c1ccc(N2CCN(Cc3ccc(Br)cc3)CC2)cc1,–,0.685
COc1ccc(N2CCN(Cc3ccc(Cl)cc3)CC2)cc1,–,0.44
CN1CCN(Cc2cccc(Br)c2)CC1,–,-0.9
Oc1c(Cl)cc(-c2cc(Cl)c(O)c(Cl)c2)cc1Cl,–,0.4
CN1CCC(N2CCOCC2)CC1,–,-0.155
O=[N+]([O-])c1ccccc1CN1CCN(c2ccc(F)cc2)CC1,–,0.17
Cc1ccc(CN2CCN(c3ccccc3C)CC2)cc1,–,0.035
COc1ccc(CN2CCN(c3ccccc3F)CC2)c(C)c1C,–,-0.115
COc1ccccc1N1C(=O)CC(=O)NC1=O,–,0.015
Fc1ccc(CN2CCN(Cc3ccccc3)CC2)cc1F,–,0.985

# Among those listed so far, three contain bromine:
Structure (SMILES),T3 sensor activation Q score (ppGalNAc-T3 sensor),T2 sensor activation Q score (ppGalNAc-T2 sensor)
COc1ccc(Br)cc1CN1CCN(c2ccccc2C)CC1,0.135,0
CC(=O)c1ccc(N2CCN(Cc3ccc(Br)cc3)CC2)cc1,–,0.685
CN1CCN(Cc2cccc(Br)c2)CC1,–,-0.9

# Next compounds follow:

Structure (SMILES),T3 sensor activation Q score (ppGalNAc-T3 sensor),T2 sensor activation Q score (ppGalNAc-T2 sensor)
O=c1c2ccccc2nc(/C=C\c2ccc(Cl)cc2)n1-c1ccccc1,–,-0.475
COc1ccc(CN2CCN(C)CC2)cc1,–,-0.03
Cc1cccc(CN2CCN(c3ccccc3C)CC2)c1,–,0.87
CN1CCN(Cc2ccccc2[N+](=O)[O-])CC1,–,0.67
CCN1CCN(Cc2cc(Br)c(OC)cc2OC)CC1,–,0.145
COc1cc(C)c(CN2CCN(c3ccc(F)cc3)CC2)cc1C,–,0.525
CCN1CCN(Cc2c(Cl)cccc2Cl)CC1,–,0.395
CCOc1ccccc1CN1CCN(c2ccc(Cl)cc2)CC1,–,-0.245
CN1CCN(Cc2ccc[nH]2)CC1,–,-0.065
O=[N+]([O-])c1ccc(N2CCN(Cc3cc(F)ccc3F)CC2)cc1,–,-0.035
COc1ccc(O)c(CN2CCN(c3cc(C)ccc3C)CC2)c1,–,-2.15
CN1CCN(Cc2ccc3c(c2)OCO3)CC1,–,-1.16
Fc1ccc(CN2CCN(c3ccccc3)CC2)cc1Br,–,0.87
CCOc1ccccc1N1CCN(Cc2cccc(OC)c2)CC1,–,-0.33
CC(NC(=O)C(Cl)(Cl)Cl)c1ccccc1 (configuration not stated),–,0.38
Cc1ccc(CN2CCN(c3ccc(Cl)cc3)CC2)cc1,–,-0.935
O=[N+]([O-])c1ccc(CN2CCN(c3cccc(Cl)c3)CC2)cc1,–,0.185
Cc1ccccc1CN1CCN(c2ccc([N+](=O)[O-])cc2)CC1,–,0.215
O=C1NC(=O)C(Cc2ccc(F)cc2)C(=O)N1,–,-0.985
COc1ccccc1N1CCN(Cc2cccc([N+](=O)[O-])c2)CC1,–,-0.19
